# Results from one PubChem assay

From PubChem BioAssay record AID1159506 (NCATS, 2015).

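Genome-wide siRNA knockdown in TC32 Ewing sarcoma cells, comparing luciferase light from an NR0B1-promoter reporter with a CMV-promoter reporter 48 hours after transfection. Each siRNA was applied at 20 nM. A z-score of the log NR0B1-over-CMV signal, less the median of siRNAs with the same seed; more negative means a stronger specific loss of the NR0B1 reporter.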

This is part of the screen; most of the strongest results are not listed here. Sequences are the guide (antisense) strand, without overhang.

| Sequence | target gene | seed-corrected z-score |
|---|---|---|
| `UAGACAUUCAAAUAUGACU` | SLC6A12 | -0.3672 |
| `UGAGACAACAGCGAGUCUG` | MAD2L2 | -0.1153 |
| `AAAGUUGGGACAGUCACCG` | TNFRSF1A | -0.409 |
| `AACUUGAGACCUGUCAGGG` | FSD1 | -0.998 |
| `UUUCUUGUGAGUUGAGCCU` | HCP5 | 1.686 |
| `UUUACGGCAAUAGACAUUU` | TUBA1C | 0.01759 |
| `UGGGUAGACGUUGAACAGC` | CYP2W1 | -0.3818 |
| `AUAGGGAAGACCUCGAAGG` | ESRP1 | 1.422 |
| `UCUCCGUUUGCAGAAAUCG` | HSPD1 | 1.315 |
| `UUUCUAGUGAGGGUCGUGC` | OR2C3 | -0.3607 |
| `ACAUUGAUCUUAACUCUCC` | KCNB2 | 0.2574 |
| `UUUUCGAACUGCAUAGGUC` | SRSF1 | 0.6766 |
| `UUAGGAUCUUCUUGGGCAG` | C19orf35 | 0.8458 |
| `UCAAAUGCAGCCGUGAGCC` | BPHL | 0.1243 |
| `AGGAGCUUCACUCUUGUGC` | BTN3A1 | -0.4781 |
| `UCCUUUAGUGAGUCCAUCC` | STX17-AS1 | -0.08656 |
| `UCAGUCGUUAUUUCUAUGA` | SPANXB1 | 0.4283 |
| `UUAUUGAGUCCGAAGAGGA` | DRD2 | 0.005795 |
| `GUAGAGGCCAAAGCUCUCG` | EVA1B | -1.48 |
| `UUUCUCCUCAGCAGACUUG` | C2orf57 | 0.2656 |
| `UCCUGAUCCUGUUCGUUGC` | ANAPC15 | 0.339 |
| `AUAAGAUCCAUUAAGUCAC` | C11orf40 | -0.7724 |
| `AUGAGAUAAACUAUCAUGG` | MARVELD2 | -0.6118 |
| `GAUCAAAUAGCUUCUGGUU` | TNNI2 | 0.7949 |
| `UUGUCUAUUAGGAUCCGUC` | IGSF10 | -0.09374 |
| `UCUUCGUUCAGUUUGGAUG` | SLX4 | -0.8375 |
| `UCUCUUUCAAGGCUCGCUC` | RTFDC1 | -0.293 |
| `AUGCUGACCACGAUCCAUG` | FAM3A | 0.5492 |
| `UAUCUAGAAAGUGCCUGUG` | IL25 | 1.839 |
| `UUGAUAUAAGGGUUAAUAC` | OR5K3 | -0.1291 |
| `AUAGUAGAUAGAGCCCACG` | PUF60 | -0.2706 |
| `UUCGCUGUGGAUUCCAUUC` | FAM193A | -0.2971 |
| `UUGUUGGUGAGGACUUUCG` | TSHZ1 | -0.4682 |
| `UAUCCAACUCUGAUGAAGG` | SEMA3E | -1.275 |
| `UGACGGUCCAGAGAGAACC` | PARD6G | -0.08959 |
| `AUAGCUAUAGGCCUGGUCC` | WARS | -0.253 |
| `UAGAGCACGGUGUAAGUUG` | FAM43A | 0.4697 |
| `UACGAAGCAAGUCUGAACA` | KPRP | -0.4711 |
| `AAGAGUUCCAGAGAUGAUG` | ALAS2 | 0.1393 |
| `UCAUUUGAUAGUCCAUUUC` | ITGB3BP | 0.6728 |
| `UAUCUUUGCAUCGCACUCC` | ADGRE1 | 0.2429 |
| `AUCAUAGUUGGAAUGGUCG` | SAP130 | -0.4665 |
| `UAUCUCAUGUAGAAGGUCG` | GRAMD3 | -0.1347 |
| `AAUCCGACGAUUUCGCGCG` | GATA3-AS1 | 0.5425 |
| `AACUGGUCCAUAUCGAGUG` | TGFB2 | 0.4172 |
| `UACUUGAGUCAAUUCAUCC` | AKAP14 | -0.6897 |
| `UGAACUUUGAGCUCGGUAG` | LANCL3 | -0.9818 |
| `UAUCUUGUUGCCGCUCUUC` | MAST3 | 1.591 |
| `UUUAAGAACUGAACCUUGG` | CHI3L2 | -0.1553 |
| `UGCUUUACUUGAGUGUUUG` | STRA8 | 1.207 |
| `UUUUUCACAGUAGUUGUCG` | DUSP8 | -0.4157 |
| `UGUAUUGAGCUGAUCAUUG` | ATL1 | 0.9703 |
| `UAAGGGUAGAGAGGCAGAG` | F2RL1 | -0.3326 |
| `AGAGUUACUACCUUGGUGC` | HMGN2P24 | -0.1079 |
| `AUCGGAUUCGCUGGAAUAC` | PAK7 | 1.104 |
| `AAGGUUAAGAUGUAUAGUG` | OR10J1 | -0.06072 |
| `UAUCUUGGUAGCUACUGCG` | TMEM106A | -1.082 |
| `UUAGCUAUAGGAUCAAAUG` | TAF1B | 0.6107 |
| `UAAGCAUAUGUGAAGGUAG` | PRUNE2 | 0.1077 |

7 of the entries, repeated:

Result for ACAUUGAUCUUAACUCUCC against KCNB2 was seed-corrected z-score 0.2574.
Result for UAAGCAUAUGUGAAGGUAG against PRUNE2 was seed-corrected z-score 0.1077.
Result for UAUCUCAUGUAGAAGGUCG against GRAMD3 was seed-corrected z-score -0.1347.
Result for UAUCUUGUUGCCGCUCUUC against MAST3 was seed-corrected z-score 1.591.
Result for UUGUCUAUUAGGAUCCGUC against IGSF10 was seed-corrected z-score -0.09374.
Result for AAGGUUAAGAUGUAUAGUG against OR10J1 was seed-corrected z-score -0.06072.
Result for UCUCUUUCAAGGCUCGCUC against RTFDC1 was seed-corrected z-score -0.293.